Reference: publication PMC7687062
No constants are given. Whether binding was seen depends on the method and setting. In cells and extracts the contact can be indirect. These calls come from enrichment with a bait or labelling near it, and not all partners need be listed.

By UniProt entry, the sequences of proteins in these tests, tags left out. Residues count along the entry.
UniProt F8VQB6, residues 860-2062: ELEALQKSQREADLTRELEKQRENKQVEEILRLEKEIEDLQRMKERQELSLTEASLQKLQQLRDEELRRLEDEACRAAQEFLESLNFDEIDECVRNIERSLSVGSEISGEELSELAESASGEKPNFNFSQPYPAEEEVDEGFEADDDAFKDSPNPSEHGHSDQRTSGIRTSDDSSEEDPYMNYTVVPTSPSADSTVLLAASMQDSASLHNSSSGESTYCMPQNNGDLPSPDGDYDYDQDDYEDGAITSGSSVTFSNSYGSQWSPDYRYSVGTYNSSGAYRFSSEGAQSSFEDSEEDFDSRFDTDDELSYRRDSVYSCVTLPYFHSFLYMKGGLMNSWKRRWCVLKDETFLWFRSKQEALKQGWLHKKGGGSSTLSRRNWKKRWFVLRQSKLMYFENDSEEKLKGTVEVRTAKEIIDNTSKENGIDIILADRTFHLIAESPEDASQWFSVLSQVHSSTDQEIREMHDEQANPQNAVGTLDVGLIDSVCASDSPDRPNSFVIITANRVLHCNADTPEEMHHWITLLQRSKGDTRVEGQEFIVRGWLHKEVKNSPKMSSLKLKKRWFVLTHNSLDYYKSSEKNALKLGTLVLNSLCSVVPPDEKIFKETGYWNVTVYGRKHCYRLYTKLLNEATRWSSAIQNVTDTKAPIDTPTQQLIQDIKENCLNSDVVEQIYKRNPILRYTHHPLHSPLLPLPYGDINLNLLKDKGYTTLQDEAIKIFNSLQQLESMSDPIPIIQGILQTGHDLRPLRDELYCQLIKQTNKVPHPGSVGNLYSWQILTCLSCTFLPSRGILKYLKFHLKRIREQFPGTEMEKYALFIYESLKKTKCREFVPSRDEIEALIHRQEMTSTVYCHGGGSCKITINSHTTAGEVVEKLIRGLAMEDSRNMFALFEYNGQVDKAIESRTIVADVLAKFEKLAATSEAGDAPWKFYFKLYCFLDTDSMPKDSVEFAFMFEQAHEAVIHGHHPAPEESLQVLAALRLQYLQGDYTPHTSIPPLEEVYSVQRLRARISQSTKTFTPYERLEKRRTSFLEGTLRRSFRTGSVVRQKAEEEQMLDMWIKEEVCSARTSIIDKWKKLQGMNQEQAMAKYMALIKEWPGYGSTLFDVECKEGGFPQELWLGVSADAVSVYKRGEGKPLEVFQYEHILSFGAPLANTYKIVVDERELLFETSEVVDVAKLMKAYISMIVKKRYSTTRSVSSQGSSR
UniProt E9Q4K7: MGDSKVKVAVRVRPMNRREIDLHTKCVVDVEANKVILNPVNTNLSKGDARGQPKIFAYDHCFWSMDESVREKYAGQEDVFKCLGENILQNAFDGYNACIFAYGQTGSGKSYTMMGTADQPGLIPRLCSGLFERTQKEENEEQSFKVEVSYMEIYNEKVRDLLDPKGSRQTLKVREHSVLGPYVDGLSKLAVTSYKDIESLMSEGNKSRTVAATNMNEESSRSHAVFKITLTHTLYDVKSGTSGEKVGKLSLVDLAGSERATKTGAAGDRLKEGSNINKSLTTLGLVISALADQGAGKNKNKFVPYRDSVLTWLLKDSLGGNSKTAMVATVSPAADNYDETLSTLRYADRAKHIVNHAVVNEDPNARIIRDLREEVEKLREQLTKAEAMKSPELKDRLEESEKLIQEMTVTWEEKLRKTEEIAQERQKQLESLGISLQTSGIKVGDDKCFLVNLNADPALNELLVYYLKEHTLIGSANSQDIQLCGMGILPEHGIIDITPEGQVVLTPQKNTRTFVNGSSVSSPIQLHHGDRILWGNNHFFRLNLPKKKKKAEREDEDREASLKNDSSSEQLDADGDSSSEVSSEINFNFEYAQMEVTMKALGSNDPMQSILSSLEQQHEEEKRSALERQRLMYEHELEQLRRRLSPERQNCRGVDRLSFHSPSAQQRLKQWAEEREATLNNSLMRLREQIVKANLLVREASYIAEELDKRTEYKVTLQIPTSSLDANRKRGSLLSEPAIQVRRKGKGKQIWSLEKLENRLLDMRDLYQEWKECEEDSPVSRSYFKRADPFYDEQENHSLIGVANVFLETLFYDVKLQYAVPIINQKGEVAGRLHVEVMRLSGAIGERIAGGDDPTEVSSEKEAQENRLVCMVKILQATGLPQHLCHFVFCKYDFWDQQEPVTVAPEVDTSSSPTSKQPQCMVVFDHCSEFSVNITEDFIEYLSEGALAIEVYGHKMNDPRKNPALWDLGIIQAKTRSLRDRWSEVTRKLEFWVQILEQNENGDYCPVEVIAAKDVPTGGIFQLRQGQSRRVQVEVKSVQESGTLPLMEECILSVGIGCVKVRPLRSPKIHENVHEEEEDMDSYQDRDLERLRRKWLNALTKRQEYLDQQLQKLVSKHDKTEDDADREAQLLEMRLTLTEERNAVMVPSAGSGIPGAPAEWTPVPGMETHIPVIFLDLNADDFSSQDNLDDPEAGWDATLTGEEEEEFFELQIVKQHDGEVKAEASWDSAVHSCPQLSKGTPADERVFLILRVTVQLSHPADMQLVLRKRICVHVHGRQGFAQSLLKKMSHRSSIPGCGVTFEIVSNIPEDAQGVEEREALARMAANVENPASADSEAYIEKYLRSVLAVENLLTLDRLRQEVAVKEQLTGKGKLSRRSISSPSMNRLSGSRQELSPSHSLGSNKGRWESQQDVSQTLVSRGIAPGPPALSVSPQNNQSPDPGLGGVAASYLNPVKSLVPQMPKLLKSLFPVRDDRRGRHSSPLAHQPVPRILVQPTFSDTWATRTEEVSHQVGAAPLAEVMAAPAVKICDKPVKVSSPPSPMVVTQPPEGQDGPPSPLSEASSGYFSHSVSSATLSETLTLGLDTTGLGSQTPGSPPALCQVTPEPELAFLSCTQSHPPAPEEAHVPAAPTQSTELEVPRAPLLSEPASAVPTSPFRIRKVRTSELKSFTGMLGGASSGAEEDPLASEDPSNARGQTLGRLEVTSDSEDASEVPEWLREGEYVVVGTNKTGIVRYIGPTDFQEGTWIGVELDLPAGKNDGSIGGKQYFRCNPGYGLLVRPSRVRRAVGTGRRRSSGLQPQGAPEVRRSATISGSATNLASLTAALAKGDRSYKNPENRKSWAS

Target: GFP-hMyoX (GFP-tagged headless MyoX), expressed in cultured cortical neurons (mouse) (UniProt F8VQB6)
Assay: affinity purification with mass spectrometry; GFP-hMyoX transfected into cultured cortical neurons, lysed after 48 h (20 mM Tris pH 8.0, 10 mM NaCl, 1 mM EDTA, 0.5% NP-40); precipitated with anti-GFP or control IgG; unique silver-stained bands (~50-250 kDa) analysed by LC-MS/MS

## KIF13B, endogenous in cultured cortical neurons (from UniProt E9Q4K7 1-1843)
  binding: binds
